Reference: paper PMC12236914
No constants are given. Whether binding was seen depends on the method and setting. Binding seen in cells or lysates may run through a third protein. Some entries that bind do so weakly or less than the wild type.

Chains of the proteins cited; added tags and fusions are not shown.
UniProt P39748: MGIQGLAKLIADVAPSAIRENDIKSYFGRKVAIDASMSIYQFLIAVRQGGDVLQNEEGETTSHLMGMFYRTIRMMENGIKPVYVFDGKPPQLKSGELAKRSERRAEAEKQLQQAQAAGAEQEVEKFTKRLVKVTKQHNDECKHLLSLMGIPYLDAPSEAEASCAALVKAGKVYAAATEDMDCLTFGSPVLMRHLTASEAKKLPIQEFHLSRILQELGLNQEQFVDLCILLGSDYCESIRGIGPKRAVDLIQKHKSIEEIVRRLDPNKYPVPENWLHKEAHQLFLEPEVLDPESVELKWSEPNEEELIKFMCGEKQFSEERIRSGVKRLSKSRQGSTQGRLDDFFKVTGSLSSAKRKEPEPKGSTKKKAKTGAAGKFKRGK

Molecular target: Flag-tagged FEN1 (UniProt P39748)
Test: co-IP; reciprocal co-IP from 293T cells co-expressing FANCA and FEN1; NETN lysis buffer, sonication, protein G beads, overnight at 4 °C

- binding: binds
B1: FANCA full-length (protein, UniProt O15360 1-1455)
chain: MSDSWVPNSASGQDPGGRRRAWAELLAGRVKREKYNPERAQKLKESAVRLLRSHQDLNALLLEVEGPLCKKLSLSKVIDCDSSEAYANHSSSFIGSALQDQASRLGVPVGILSAGMVASSVGQICTAPAETSHPVLLTVEQRKKLSSLLEFAQYLLAHSMFSRLSFCQELWKIQSSLLLEAVWHLHVQGIVSLQELLESHPDMHAVGSWLFRNLCCLCEQMEASCQHADVARAMLSDFVQMFVLRGFQKNSDLRRTVEPEKMPQVTVDVLQRMLIFALDALAAGVQEESSTHKIVRCWFGVFSGHTLGSVISTDPLKRFFSHTLTQILTHSPVLKASDAVQMQREWSFARTHPLLTSLYRRLFVMLSAEELVGHLQEVLETQEVHWQRVLSFVSALVVCFPEAQQLLEDWVARLMAQAFESCQLDSMVTAFLVVRQAALEGPSAFLSYADWFKASFGSTRGYHGCSKKALVFLFTFLSELVPFESPRYLQVHILHPPLVPGKYRSLLTDYISLAKTRLADLKVSIENMGLYEDLSSAGDITEPHSQALQDVEKAIMVFEHTGNIPVTVMEASIFRRPYYVSHFLPALLTPRVLPKVPDSRVAFIESLKRADKIPPSLYSTYCQACSAAEEKPEDAALGVRAEPNSAEEPLGQLTAALGELRASMTDPSQRDVISAQVAVISERLRAVLGHNEDDSSVEISKIQLSINTPRLEPREHMAVDLLLTSFCQNLMAASSVAPPERQGPWAALFVRTMCGRVLPAVLTRLCQLLRHQGPSLSAPHVLGLAALAVHLGESRSALPEVDVGPPAPGAGLPVPALFDSLLTCRTRDSLFFCLKFCTAAISYSLCKFSSQSRDTLCSCLSPGLIKKFQFLMFRLFSEARQPLSEEDVASLSWRPLHLPSADWQRAALSLWTHRTFREVLKEEDVHLTYQDWLHLELEIQPEADALSDTERQDFHQWAIHEHFLPESSASGGCDGDLQAACTILVNALMDFHQSSRSYDHSENSDLVFGGRTGNEDIISRLQEMVADLELQQDLIVPLGHTPSQEHFLFEIFRRRLQALTSGWSVAASLQRQRELLMYKRILLRLPSSVLCGSSFQAEQPITARCEQFFHLVNSEMRNFCSHGGALTQDITAHFFRGLLNACLRSRDPSLMVDFILAKCQTKCPLILTSALVWWPSLEPVLLCRWRRHCQSPLPRELQKLQEGRQFASDFLSPEAASPAPNPDWLSAAALHFAIQQVREENIRKQLKKLDCEREELLVFLFFFSLMGLLSSHLTSNSTTDLPKAFHVCAAILECLEKRKISWLALFQLTESDLRLGRLLLRVAPDQHTRLLPFAFYSLLSYFHEDAAIREEAFLHVAVDMYLKLVQLFVAGDTSTVSPPAGRSLELKGQGNPVELITKARLFLLQLIPRCPKKSFSHVAELLADRGDCDPEVSAALQSRQQAAPDADLSQEPHLF
